According to patent publication US20180049438A1, “NITRIFICATION INHIBITOR COMPOSITIONS AND METHODS FOR PREPARING THE SAME” (DOW AGROSCIENCES LLC, priority 2014, published 2018):
Some of these results come from one statement about several compounds together.

experiment: Solubility properties of the water soluble polar solvents (nitrapyrin solubility, water solubility); details: water solubility of the polar solvent

Water solubility, greater than 10%:
COC(C)COC(C)CO (stereo not drawn) [Dowanol DPM, dipropylene glycol monomethyl ether]
CC1COC(=O)O1 (stereo not drawn) [Jeffsol AG 1555, propylene carbonate]
COC(=O)C(C)CCC(=O)N(C)C (stereo not drawn) [DV-Solve 1059, methyl 5-(dimethylamino)-2-methyl-5-oxopentanoate]
